Experimental data reported in doi:10.1101/2021.12.31.474672.
Results are given in words; binding and its absence hold for the method and conditions named. Binding seen in cells or lysates may run through a third protein. Some binding calls cover weakened binding; strength is not graded here. Values belong to the binder of their own block, whether it stands above or below them.

The chains behind the UniProt entries cited, without tags or fusion partners. Residues count along the entry.
UniProt P11021, residues 19-654: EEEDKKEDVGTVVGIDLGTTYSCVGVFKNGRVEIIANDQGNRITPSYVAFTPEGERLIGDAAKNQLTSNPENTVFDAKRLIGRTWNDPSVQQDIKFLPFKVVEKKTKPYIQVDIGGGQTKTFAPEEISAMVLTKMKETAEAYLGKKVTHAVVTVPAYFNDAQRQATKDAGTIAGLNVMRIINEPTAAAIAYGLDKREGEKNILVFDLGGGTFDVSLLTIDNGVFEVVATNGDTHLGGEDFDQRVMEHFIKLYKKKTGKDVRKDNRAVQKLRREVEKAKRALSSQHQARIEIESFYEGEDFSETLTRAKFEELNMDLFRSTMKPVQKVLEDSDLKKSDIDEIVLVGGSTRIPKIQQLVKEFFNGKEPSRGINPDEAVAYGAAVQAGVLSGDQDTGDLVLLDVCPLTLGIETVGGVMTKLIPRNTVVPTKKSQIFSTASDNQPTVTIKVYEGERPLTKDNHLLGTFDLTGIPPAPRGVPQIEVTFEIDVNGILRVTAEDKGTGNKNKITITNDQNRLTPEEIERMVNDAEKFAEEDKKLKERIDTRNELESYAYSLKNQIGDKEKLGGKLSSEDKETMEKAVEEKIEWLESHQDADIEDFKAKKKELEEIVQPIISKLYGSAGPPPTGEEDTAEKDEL

Columns and labels:
[1] = molecular target: HSPA5 encoded protein P11021 (human (endogenous in HeLa)) (UniProt P11021); experiment: cross-linking
Smc4 = molecular target: T1, Smc4 (UniProt Q12267); experiment: cross-linking
T1 sequence: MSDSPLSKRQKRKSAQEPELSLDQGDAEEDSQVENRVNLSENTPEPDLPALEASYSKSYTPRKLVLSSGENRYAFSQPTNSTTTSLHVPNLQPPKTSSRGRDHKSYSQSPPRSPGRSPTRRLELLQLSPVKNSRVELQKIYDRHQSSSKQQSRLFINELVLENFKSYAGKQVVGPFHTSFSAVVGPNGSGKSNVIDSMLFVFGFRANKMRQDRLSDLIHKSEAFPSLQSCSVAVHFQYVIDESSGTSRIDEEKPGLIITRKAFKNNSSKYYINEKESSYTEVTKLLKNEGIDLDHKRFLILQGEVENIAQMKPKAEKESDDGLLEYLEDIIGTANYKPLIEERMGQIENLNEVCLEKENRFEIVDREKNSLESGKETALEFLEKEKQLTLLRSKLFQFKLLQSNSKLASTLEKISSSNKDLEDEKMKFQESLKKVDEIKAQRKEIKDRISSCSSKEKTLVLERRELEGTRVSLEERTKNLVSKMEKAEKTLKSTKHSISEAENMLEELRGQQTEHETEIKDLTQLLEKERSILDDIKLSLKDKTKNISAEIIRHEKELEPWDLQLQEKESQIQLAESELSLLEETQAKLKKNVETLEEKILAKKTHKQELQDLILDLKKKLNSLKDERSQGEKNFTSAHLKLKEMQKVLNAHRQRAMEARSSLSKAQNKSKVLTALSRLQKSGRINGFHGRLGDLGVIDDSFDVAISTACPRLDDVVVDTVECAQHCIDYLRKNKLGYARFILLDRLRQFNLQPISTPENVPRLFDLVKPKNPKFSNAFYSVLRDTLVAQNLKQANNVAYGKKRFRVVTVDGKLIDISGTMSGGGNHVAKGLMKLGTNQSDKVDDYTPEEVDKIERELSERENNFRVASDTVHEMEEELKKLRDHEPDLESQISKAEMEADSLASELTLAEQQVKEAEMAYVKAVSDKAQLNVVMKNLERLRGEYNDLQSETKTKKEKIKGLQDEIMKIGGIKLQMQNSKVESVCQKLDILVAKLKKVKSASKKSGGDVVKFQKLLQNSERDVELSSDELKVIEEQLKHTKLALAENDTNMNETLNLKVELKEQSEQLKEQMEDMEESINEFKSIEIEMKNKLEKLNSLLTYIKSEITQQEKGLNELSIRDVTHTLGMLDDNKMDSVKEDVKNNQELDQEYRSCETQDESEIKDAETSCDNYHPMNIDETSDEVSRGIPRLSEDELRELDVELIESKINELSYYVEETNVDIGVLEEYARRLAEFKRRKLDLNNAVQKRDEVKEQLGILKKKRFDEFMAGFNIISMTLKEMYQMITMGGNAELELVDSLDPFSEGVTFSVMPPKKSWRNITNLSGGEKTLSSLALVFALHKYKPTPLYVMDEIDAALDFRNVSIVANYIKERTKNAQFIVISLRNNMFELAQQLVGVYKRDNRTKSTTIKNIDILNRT

B3: FAM92A1 (protein, UniProt A1XBS5 48-289)
chain: ADLLVNEINAYAATETPHLKLGLMNFADEFAKLQDYRQAEVERLEAKVVEPLKTYGTIVKMKRDDLKATLTARNREAKQLTQLERTRQRNPSDRHVISQAETELQRAAMDASRTSRHLEETINNFERQKMKDIKTIFSEFITIEMLFHGKALEVYTAAYQNIQNIDEDEDLEVFRNSLYAPDYSSRLDIVRANSKSPLQRSLSAKCVSGTGQVSTCRLRKDQQAEDDEDDELDVTEEENFLK
binding [1]: binds

B5: Smc2 (protein, UniProt P38989 1-1170)
chain: MKVEELIIDGFKSYATRTVITDWDPQFNAITGLNGSGKSNILDAICFVLGIASMSTVRASSLQDLIYKRGQAGVTKASVTIVFDNTDKSNSPIGFTNSPQISVTRQVVLGGTSKYLINGHRAPQQSVLQLFQSVQLNINNPNFLIMQGKITKVLNMKPSEILSLIEEAAGTKMFEDRREKAERTMSKKETKLQENRTLLTEEIEPKLEKLRNEKRMFLEFQSTQTDLEKTERIVVSYEYYNIKHKHTSIRETLENGETRMKMLNEFVKKTSEEIDSLNEDVEEIKLQKEKELHKEGTISKLENKENGLLNEISRLKTSLSIKVENLNDTTEKSKALESEIASSSAKLIEKKSAYANTEKDYKMVQEQLSKQRDLYKRKEELVSTLTTGISSTGAADGGYNAQLAKAKTELNEVSLAIKKSSMKMELLKKELLTIEPKLKEATKDNELNVKHVKQCQETCDKLRARLVEYGFDPSRIKDLKQREDKLKSHYYQTCKNSEYLKRRVTNLEFNYTKPYPNFEASFVHGVVGQLFQIDNDNIRYATALQTCAGGRLFNVVVQDSQTATQLLERGRLRKRVTIIPLDKIYTRPISSQVLDLAKKIAPGKVELAINLIRFDESITKAMEFIFGNSLICEDPETAKKITFHPKIRARSITLQGDVYDPEGTLSGGSRNTSESLLVDIQKYNQIQKQIETIQADLNHVTEELQTQYATSQKTKTIQSDLNLSLHKLDLAKRNLDANPSSQIIARNEEILRDIGECENEIKTKQMSLKKCQEEVSTIEKDMKEYDSDKGSKLNELKKELKLLAKELEEQESESERKYDLFQNLELETEQLSSELDSNKTLLHNHLKSIESLKLENSDLEGKIRGVEDDLVTVQTELNEEKKRLMDIDDELNELETLIKKKQDEKKSSELELQKLVHDLNKYKSNTNNMEKIIEDLRQKHEFLEDFDLVRNIVKQNEGIDLDTYRERSKQLNEKFQELRKKVNPNIMNMIENVEKKEAALKTMIKTIEKDKMKIQETISKLNEYKRETLVKTWEKVTLDFGNIFADLLPNSFAKLVPCEGKDVTQGLEVKVKLGNIWKESLIELSGGQRSLIALSLIMALLQFRPAPMYILDEVDAALDLSHTQNIGHLIKTRFKGSQFIVVSLKEGMFANANRVFRTRFQDGTSVVSIM
binding (Smc4): binds

The remaining lines, values ahead:

binding [1]: binds
B1: MAGEB18 (protein, UniProt Q96M61 1-343)
chain: MPRGQKSKLRAREKRHQARCENQDLGATQATVAEGESPSPAYLLFGDRPQNLPAAETPSIPEALQGAPSTTNAIAPVSCSSNEGASSQDEKSLGSSREAEGWKEDPLNKKVVSLVHFLLQKYETKEPITKGDMIKFVIRKDKCHFNEILKRASEHMELALGVDLKEVDPIRHYYAFFSKLDLTYDETTSDEEKIPKTGLLMIALGVIFLNGNRAPEEAVWEIMNMMGVYADRKHFLYGDPRKVMTKDLVQLKYLEYQQVPNSDPPRYEFLWGPRAHAETSKMKVLEFVAKIHDTVPSAFPSCYEEALRDEEQRTQARAAARAHTAAMANARSRTTSSSFSHAK

binding [1]: binds
B2: MDH2 (protein, UniProt P40926 25-338)
chain: AKVAVLGASGGIGQPLSLLLKNSPLVSRLTLYDIAHTPGVAADLSHIETKAAVKGYLGPEQLPDCLKGCDVVVIPAGVPRKPGMTRDDLFNTNATIVATLTAACAQHCPEAMICVIANPVNSTIPITAEVFKKHGVYNPNKIFGVTTLDIVRANTFVAELKGLDPARVNVPVIGGHAGKTIIPLISQCTPKVDFPQDQLTALTGRIQEAGTEVVKAKAGAGSATLSMAYAGARFVFSLVDAMNGKEGVVECSFVKSQETECTYFSTPLLLGKKGIEKNLGIGKVSSFEEKMISDAIPELKASIKKGEDFVKTLK

binding [1]: binds
B4: SMG5 (protein, UniProt Q9UPR3 1-1016)
chain: MSQGPPTGESSEPEAKVLHTKRLYRAVVEAVHRLDLILCNKTAYQEVFKPENISLRNKLRELCVKLMFLHPVDYGRKAEELLWRKVYYEVIQLIKTNKKHIHSRSTLECAYRTHLVAGIGFYQHLLLYIQSHYQLELQCCIDWTHVTDPLIGCKKPVSASGKEMDWAQMACHRCLVYLGDLSRYQNELAGVDTELLAERFYYQALSVAPQIGMPFNQLGTLAGSKYYNVEAMYCYLRCIQSEVSFEGAYGNLKRLYDKAAKMYHQLKKCETRKLSPGKKRCKDIKRLLVNFMYLQSLLQPKSSSVDSELTSLCQSVLEDFNLCLFYLPSSPNLSLASEDEEEYESGYAFLPDLLIFQMVIICLMCVHSLERAGSKQYSAAIAFTLALFSHLVNHVNIRLQAELEEGENPVPAFQSDGTDEPESKEPVEKEEEPDPEPPPVTPQVGEGRKSRKFSRLSCLRRRRHPPKVGDDSDLSEGFESDSSHDSARASEGSDSGSDKSLEGGGTAFDAETDSEMNSQESRSDLEDMEEEEGTRSPTLEPPRGRSEAPDSLNGPLGPSEASIASNLQAMSTQMFQTKRCFRLAPTFSNLLLQPTTNPHTSASHRPCVNGDVDKPSEPASEEGSESEGSESSGRSCRNERSIQEKLQVLMAEGLLPAVKVFLDWLRTNPDLIIVCAQSSQSLWNRLSVLLNLLPAAGELQESGLALCPEVQDLLEGCELPDLPSSLLLPEDMALRNLPPLRAAHRRFNFDTDRPLLSTLEESVVRICCIRSFGHFIARLQGSILQFNPEVGIFVSIAQSEQESLLQQAQAQFRMAQEEARRNRLMRDMAQLRLQLEVSQLEGSLQQPKAQSAMSPYLVPDTQALCHHLPVIRQLATSGRFIVIIPRTVIDGLDLLKKEHPGARDGIRYLEAEFKKGNRYIRCQKEVGKSFERHKLKRQDADAWTLYKILDSCKQLTLAQGAGEEDPSGMVTIITGLPLDNPSVLSGPMQAALQAAAHASVDIKNVLDFYKQWKEIG

binding [1]: binds
B6: CAMSAP2 (protein, UniProt Q08AD1 1-1489)
chain: MGDAADPREMRKTFIVPAIKPFDHYDFSRAKIACNLAWLVAKAFGTENVPEELQEPFYTDQYDQEHIKPPVVNLLLSAELYCRAGSLILKSDAAKPLLGHDAVIQALAQKGLYVTDQEKLVTERDLHKKPIQMSAHLAMIDTLMMAYTVEMVSIEKVIACAQQYSAFFQATDLPYDIEDAVMYWINKVNEHLKDIMEQEQKLKEHHTVEAPGGQKSPSKWFWKLVPARYRKEQTLLKQLPCIPLVENLLKDGTDGCALAALIHFYCPDVVRLEDICLKETMSLADSLYNLQLIQEFCQEYLNQCCHFTLEDMLYAASSIKSNYLVFMAELFWWFEVVKPSFVQPRVVRPQGAEPVKDMPSIPVLNAAKRNVLDSSSDFPSSGEGATFTQSHHHLPSRYSRPQAHSSASGGIRRSSSMSYVDGFIGTWPKEKRSSVHGVSFDISFDKEDSVQRSTPNRGITRSISNEGLTLNNSHVSKHIRKNLSFKPINGEEEAESIEEELNIDSHSDLKSCVPLNTNELNSNENIHYKLPNGALQNRILLDEFGNQIETPSIEEALQIIHDTEKSPHTPQPDQIANGFFLHSQEMSILNSNIKLNQSSPDNVTDTKGALSPITDNTEVDTGIHVPSEDIPETMDEDSSLRDYTVSLDSDMDDASKFLQDYDIRTGNTREALSPCPSTVSTKSQPGSSASSSSGVKMTSFAEQKFRKLNHTDGKSSGSSSQKTTPEGSELNIPHVVAWAQIPEETGLPQGRDTTQLLASEMVHLRMKLEEKRRAIEAQKKKMEAAFTKQRQKMGRTAFLTVVKKKGDGISPLREEAAGAEDEKVYTDRAKEKESQKTDGQRSKSLADIKESMENPQAKWLKSPTTPIDPEKQWNLASPSEETLNEGEILEYTKSIEKLNSSLHFLQQEMQRLSLQQEMLMQMREQQSWVISPPQPSPQKQIRDFKPSKQAGLSSAIAPFSSDSPRPTHPSPQSSNRKSASFSVKSQRTPRPNELKITPLNRTLTPPRSVDSLPRLRRFSPSQVPIQTRSFVCFGDDGEPQLKESKPKEEVKKEELESKGTLEQRGHNPEEKEIKPFESTVSEVLSLPVTETVCLTPNEDQLNQPTEPPPKPVFPPTAPKNVNLIEVSLSDLKPPEKADVPVEKYDGESDKEQFDDDQKVCCGFFFKDDQKAENDMAMKRAALLEKRLRREKETQLRKQQLEAEMEHKKEETRRKTEEERQKKEDERARREFIRQEYMRRKQLKLMEDMDTVIKPRPQVVKQKKQRPKSIHRDHIESPKTPIKGPPVSSLSLASLNTGDNESVHSGKRTPRSESVEGFLSPSRCGSRNGEKDWENASTTSSVASGTEYTGPKLYKEPSAKSNKHIIQNALAHCCLAGKVNEGQKKKILEEMEKSDANNFLILFRDSGCQFRSLYTYCPETEEINKLTGIGPKSITKKMIEGLYKYNSDRKQFSHIPAKTLSASVDAITIHSHLWQTKRPVTPKKLLPTKA
